Laboratory results taken from patent US20200155714A1 (PEKING UNION MEDICAL COLLEGE HOSPITAL, CHINESE ACADEMY OF …, priority 2017, published 2020).

Assay: general procedure: peptide synthesis; DECP/DIPEA

Substance	step yield (late stage modification step)	conjugation yield (conjugation step)	final purity (method not given) (conjugation step)
Glu-PEG4-TATE	68%		
NOTA-Bn-p-SCN-PEG4-Glu{PEG4-Cyclo[Arg-Gly-Asp-(D-Tyr)-Lys]}-PEG4-(D-Phe)-Cys-Tyr-(D-Trp)-Lys-Thr-Cys-Thr		13.5%	more than 97%
